Results are given in words; binding and its absence hold for the method and conditions named. In cells and extracts the contact can be indirect. These calls come from enrichment with a bait or labelling near it, and not all partners need be listed. Where a sequence is shown, tags or fusion partners need not be part of it.
Molecular target: T1, UPB1-HA-Flag (Arabidopsis) (UniProt O22901)
T1 sequence: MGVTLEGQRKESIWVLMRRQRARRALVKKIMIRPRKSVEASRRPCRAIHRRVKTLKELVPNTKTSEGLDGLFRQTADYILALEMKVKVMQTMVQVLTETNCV
Assay: affinity purification with mass spectrometry; IP-MS: extract of four-week-old pUPB1-UPB1-HA-Flag/upb1-1 plants on HA agarose beads; SDS-PAGE, in-gel trypsin digest, LC-MS/MS

B1: GST-PRE3 (natural protein, Arabidopsis, UniProt Q9CA64 1-93, looked up)
chain: MSGRRSRSRQSSGTSRISEDQINDLIIKLQQLLPELRDSRRSDKVSAARVLQDTCNYIRNLHREVDDLSERLSELLANSDTAQAALIRSLLTQ
notes: PRE3, Arabidopsis, At1g74500; source: E. coli, purified
With B1 the binding was “binds”.
